The structures appear in SMILES notation. Counter-ions that a name gives are not always drawn. The list shows a part of the results. Rule as the data show it: active = 0.7 or more and inactive = the rest. Single values are uncertain, as repeats are few or missing.

The assay relates to MiaPaCa-2 CLSA-25. Put plainly: cell death relative to DMSO vehicle (fraction); higher = more cytotoxic. To be noted: 5 µM; treatment time 48 h; medium cystine 25 µM.
In the case of `c1ccc([C@H]2CN3CCSC3=N2)cc1` [Levamisole hydrochloride], the cell death was inactive: 0.118.

`CN1CCc2nc(C(=O)N[C@@H]3C[C@@H](C(=O)N(C)C)CC[C@@H]3NC(=O)C(=O)Nc3ccc(Cl)cn3)sc2C1` [Edoxaban Tosylate Monohydrate]: the cell death is inactive: 0.143. The figure for `CCCc1ncc(C[n+]2ccccc2C)c(N)n1` [Amprolium Hydrochloride] is inactive: 0.622; for `CC(C)CN(C[C@@H](O)[C@H](Cc1ccccc1)NC(=O)O[C@H]1CCOC1)S(=O)(=O)c1ccc(N)cc1` [Amprenavir] it is inactive: 0.052. The figure for `Nc1nc(Cl)nc2c1ncn2[C@H]1C[C@H](O)[C@@H](CO)O1` [Cladribine] is inactive: 0.106; for `Cc1ccc([N+](=O)[O-])cc1S(=O)(=O)N(C)C` it is inactive: 0.22; for `Cc1c(Cl)cccc1S(=O)(=O)Nc1nc(CC(=O)N2CCN(C)CC2)cs1` it is inactive: 0.2. For the molecule `O=c1c(-n2ccnn2)c[nH]n1-c1cc(N2CCOCC2)ncn1` [Molidustat], the cell death was inactive: 0.167. The figure for `CN(C(=O)n1cnc(-c2ccc[n+]([O-])c2)c1)C1CCCCC1` is inactive: 0.13; for `CC(C)c1onc(-c2c(Cl)cccc2Cl)c1COc1ccc(/C=C/c2cccc(C(=O)O)c2)c(Cl)c1` it is inactive: 0.0693. The value for `C/C=C/c1cc(OC)c(OC)cc1OC` [alpha-Asarone] was inactive: 0.202; that for `N[C@@H](CCC(=O)N[C@@H](CS)C(=O)NCC(=O)O)C(=O)O` [Glutathione] was inactive: 0.0776; that for `CC[C@H](C)C(=O)O[C@H]1C[C@H](O)C=C2C=C[C@H](C)[C@H](CC[C@@H](O)C[C@@H](O)CC(=O)O)[C@H]21` [Pravastatin sodium] was inactive: 0.281.

On to `CC(C)C[C@H](NC(=O)[C@@H](O)[C@H](N)Cc1ccccc1)C(=O)O` [Bestatin hydrochloride], for which the cell death was active: 0.802. The figure for `COc1cc(N2CCN(C)CC2)ccc1Nc1ncc2c(n1)N(C)c1ccccc1C(=O)N2` is inactive: 0.128.

With `O=S(=O)(O)Oc1c[nH]c2ccccc12` [Indoxyl sulfate potassium salt], the cell death was inactive: 0.0643. The figure for `O=C(NCCN1CCOCC1)c1ccc(Cl)cc1` [Moclobemide] is inactive: 0.119; for `CCOC(=O)c1ccc(OC(=O)CCCCCNC(=N)N)cc1` [Gabexate mesylate] it is inactive: 0.0725; for `Cc1ccc(Oc2nc3cc(-c4ccc(-c5ccccc5)cc4)c(Cl)cc3[nH]2)cc1C(=O)O` it is inactive: 0.488. With `c1cc(-c2cnn3cc(-c4ccc(OCCN5CCCCC5)cc4)cnc23)ccn1` [Dorsomorphin], the cell death was inactive: 0.103.

As for `CC(C)C[C@H](N)C(=O)O` [L-Leucine], the cell death was inactive: 0.114. The value for `CCc1c(C(=O)C(N)=O)c2c(OCC(=O)O)cccc2n1Cc1ccccc1` [Varespladib] was inactive: 0.199; that for `N#Cc1ccc(Cn2cncc2CN2CCN(c3cccc(Cl)c3)C(=O)C2)cc1` was inactive: 0.43; that for `O=C(/C=C/c1ccccc1)NC(NC(=S)Nc1cccc2cccnc12)C(Cl)(Cl)Cl` (centres undefined) [Salubrinal] was inactive: 0.027. With `CCCCc1nc(Cl)c(CO)n1Cc1ccc(-c2ccccc2-c2nnn[nH]2)cc1` [Losartan potassium], the cell death was inactive: 0.0136.

As for `CCc1nc(N)nc(N)c1-c1ccc(Cl)cc1` [Pyrimethamine], the cell death was inactive: 0.236. The value for `O=C(O)c1ccc(-n2nc(-c3ccccc3O)nc2-c2ccccc2O)cc1` [Deferasirox] was inactive: 0.472; that for `CC(=O)Nc1nnc(S(N)(=O)=O)s1` [Acetazolamide] was inactive: 0.165; that for `O=C(O)C(S)=Cc1c[nH]c2ccc(F)cc12` was inactive: 0.161.

Take `N[C@@H](CC(=O)N1CCn2c(nnc2C(F)(F)F)C1)Cc1cc(F)c(F)cc1F` [Sitagliptin]: the cell death was active: 0.714. With `Nc1nc2[nH]cc(CCc3ccc(C(=O)N[C@@H](CCC(=O)O)C(=O)O)cc3)c2c(=O)[nH]1` [Pemetrexed disodium], the cell death was inactive: 0.175. Regarding `CC(=O)OCC(=O)[C@@]1(O)CC[C@H]2[C@@H]3CCC4=CC(=O)C=C[C@]4(C)[C@H]3[C@@H](O)C[C@@]21C` [Prednisolone-21-acetate], the cell death is inactive: 0.0283. The figure for `CC1(C)[C@@H](O[C@H]2O[C@H](C(=O)O)[C@@H](O)[C@H](O)[C@H]2O[C@@H]2O[C@H](C(=O)O)[C@@H](O)[C@H](O)[C@H]2O)CC[C@]2(C)[C@H]3C(=O)C=C4[C@@H]5C[C@@](C)(C(=O)O)CC[C@]5(C)CC[C@@]4(C)[C@]3(C)CC[C@@H]12` [Diammonium Glycyrrhizinate] is inactive: 0.0385; for `CNc1ccc([N+](=O)[O-])c(Nc2ccc3[nH]ncc3c2)n1` it is inactive: 0.0677.

On to `O=CN1CC/C(=C/c2ccc3c(c2)OCO3)C1=O`, for which the cell death was inactive: 0.0851. The value for `CC1=C(/C=C/C(C)=C/C=C/C(C)=C\C(=O)O)C(C)(C)CCC1` [Isotretinoin] was inactive: 0.147; that for `O=C(NC[C@H]1CN(c2ccc(N3CCOCC3=O)cc2)C(=O)O1)c1ccc(Cl)s1` [Rivaroxaban] was inactive: 0.12. The value for `CC(=O)OCC(=O)[C@@]1(O)CC[C@H]2[C@@H]3CCC4=CC(=O)CC[C@]4(C)[C@H]3C(=O)C[C@@]21C` [Cortisone acetate] was inactive: -0.00348; that for `O=C(NCc1ccc2c(c1)OCO2)c1c(Cl)cccc1Cl` was inactive: 0.599.

For the origin of these results see the supplement of paper PMC12872613.
